Source: PMC11793105, “A kalihinol analog disrupts apicoplast function and vesicular trafficking in P. falciparum malaria” (Science (New York, N.Y.), 2024)
Where “and” joins values, the source holds several entries; their conditions need not be identical. Equal entries are not always repeated.

How the values were obtained:
[1] = test system: P. falciparum whole protein extracts; test: Thermal proteome profiling (TPP), proteome-wide; assay type: binding, Plasmodium falciparum
SEC13 (PF3D7_1230700) = test: Thermal proteome profiling: SEC13; assay type: binding, Plasmodium falciparum
[2] = test system: Endoplasmin (PF3D7_1222300); test: Thermal proteome profiling: endoplasmin; assay type: binding, Plasmodium falciparum
[3] = test system: P. falciparum 3D7 parasites; test: In vitro resistance selection and whole-genome sequencing variant analysis; assay type: cell-based, Plasmodium falciparum; conditions: 10^8 cloned parasites, IC50 then gradually escalating dosage

## [C-]#[N+][C@]1(C)CC[C@H]2[C@@H]([C@@H](C(C)C)CC[C@]2(C)[N+]#[C-])[C@H]1O [MED6-189]
[1]; LytB (PF3D7_0104400)
  DTm = Tm_Chahine-Med6_AVG - Tm_Chahine-DMSO_AVG: 0.84
  Tm_Chahine-Med6_AVG: 49.5906
[1]; PIESP15 (PF3D7_0103900)
  DTm = Tm_Chahine-Med6_AVG - Tm_Chahine-DMSO_AVG: 0.29
  Tm_Chahine-Med6_AVG: 50.7511
[1]; RESA (PF3D7_0102200)
  DTm = Tm_Chahine-Med6_AVG - Tm_Chahine-DMSO_AVG: 1.48
  Tm_Chahine-Med6_AVG: 46.7422
SEC13 (PF3D7_1230700); lysate with MED6-189, compared with DMSO profile of Dziekan et al.
  temperature up to which SEC13 is stabilized (previously observed melting temperature): > 49 °C
SEC13 (PF3D7_1230700); with MED6-189, over a 36°C range of temperatures (37-73°C)
  thermal denaturation of SEC13: no denaturation of SEC13 was observed
[2]; 100μM Med6-189, replicates r1 and r2 (DMSO 43.97 and 44.03)
  Tm of Endoplasmin: 44.81 °C and 44.43 °C
[2]; MED6-189 vs DMSO controls
  stability of endoplasmin in TPP: no change in stability
[3]
  time of continuous in vitro drug pressure until tolerant parasites emerged: ~ 36 months
